# Source: patent publication EP1941863A2, “External preparation composition” (Lion Corporation, priority 2002, dated 2004)
# The name of at least one read-out is uncertain.
# Experiment: solubility in the ethanol/propylene glycol (7 : 3) solvent (Japanese Pharmacopoeia criteria)
# Format: physicochemical
# Conditions: 20°C, within 30 minutes, amount of solvent for 1 g or 1 ml of solute
substance,measurement,value
"1,3,4,6-tetra-O-acetyl-N-retinoyl-D-glucosamine",Solubility,"○ (soluble, 10 ml or more and less than 100 ml)"
